Measurements reported in PubChem BioAssay AID1259302 (Sanger Institute, 2017).
In all, the deposit lists 160 reagents; below is a part drawn at random. 122 of all reagents (76%) count as active. 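Most active calls come from the trametinib arm; viability under BYL719 or cetuximab treatment is not printed.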 Viability is capped at 1. The record does not give: the amount of reagent, the time to read-out.

Purpose: 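Retest in SW1116 cells of candidate synthetic-lethal pairs of kinase and drug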 (follow-up of hits)
Cells: human SW1116 colorectal cancer cells
Knock-down reagent: single siRNA against human genes
Challenge: anchor drugs BYL719 at 1 µM, cetuximab at 5 µg/ml or trametinib at 10 nM, each compared with DMSO vehicle; exposure time not given
Read-out: 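Viability relative to a pooled non-targeting control siRNA, averaged over replicates; for each anchor drug a synergy score weighs the joint effect against siRNA and drug alone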
Direction: synergy score with trametinib and synergy score with BYL719 and synergy score with cetuximab: higher = stronger synthetic lethal interaction with the drug; viability, siRNA with DMSO and viability, siRNA with trametinib: higher = more viable cells
Call rule: 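Active means a synergy score over 0.10 with any one of the three anchor drugs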

target gene,PubChem SID,synergy score with trametinib,synergy score with BYL719,synergy score with cetuximab,"viability, siRNA with DMSO","viability, siRNA with trametinib",activity call
GRK5 (G protein-coupled receptor kinase 5),SID56476519,0.0275,0.0272,0.0335,1,0.634,inactive
GRK5 (G protein-coupled receptor kinase 5),SID56476520,0.0839,-0.107,-0.0565,0.898,0.511,inactive
GRK5 (G protein-coupled receptor kinase 5),SID56476521,0.326,0.0119,0.0521,0.876,0.254,active
GRK5 (G protein-coupled receptor kinase 5),SID56476522,0.241,0.0565,0.0788,0.925,0.371,active
ACVR1 (activin A receptor type 1),SID56476923,0.00782,-0.124,-0.129,1,0.654,inactive
ACVR1 (activin A receptor type 1),SID56476924,0.181,-0.0176,0.163,0.95,0.448,active
ACVR1 (activin A receptor type 1),SID56476925,0.215,-0.124,0.0699,1,0.447,active
ACVR1 (activin A receptor type 1),SID152154144,0.262,-0.037,0.141,1,0.4,active
